PubChem BioAssay AID1259308 | NCATS, 2017
Screen: 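Genes whose loss raises luciferase production in HEK293 cells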 (primary screen). Cells: human HEK293 embryonic kidney cells stably expressing firefly luciferase (HEK-CMV-Luc2-Hygro). Reagent: single siRNA against human genes, 0.8 pmol siRNA per well. Duration: 72 h. Measurement: 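Reporter luminescence and viable-cell signal on separate replicate plates, given as percent of non-targeting control and median/MAD z-scores, plus per-cell luciferase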. Direction: total luciferase, z-score and total luciferase, % of control: higher = more reporter protein produced; luciferase per cell, z-score: higher = more reporter output per viable cell; viable cells, % of control: higher = more viable cells. Hit rule: 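Active when the median/MAD z-score for overall luciferase is greater than 3; a gene was taken forward for validation with new siRNAs if at least two of its three siRNAs passed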. Calls: active = raised luciferase; inactive = no rise.
This is an unselected part of about 59,000 reagents tested. Of all reagents, about 1,510 (2.6%) were called active. 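Calls use total luciferase alone and ignore viability, so some active siRNAs may act by altering cell number.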 Entries without a mark were called inactive.

| Target gene | PubChem SID | total luciferase, z-score | total luciferase, % of control | luciferase per cell, z-score | viable cells, % of control |
| --- | --- | --- | --- | --- | --- |
| CEP192P1 | SID160728016 | 0.924 | 100 | 0.138 | 108 |
| CEP192P1 | SID160728017 | -1.22 | 57.6 | -1.37 | 92.3 |
| CEP192P1 | SID160728019 | -0.0502 | 80.9 | 0.113 | 87.7 |
| PDE6G | SID160714008 | -0.0654 | 80.6 | -0.882 | 114 |
| PDE6G | SID160714009 | -1.88 | 44.4 | -1.29 | 69.7 |
| PDE6G | SID160714010 | 0 | 81.9 | -0.0449 | 92.6 |
| NPR3 | SID160731304 | -0.265 | 76.6 | -0.694 | 103 |
| NPR3 | SID160734936 | 1.17 | 105 | 0.875 | 93.3 |
| NPR3 | SID160749004 | -0.231 | 77.3 | 0.189 | 82.2 |
| NPR3 | SID160749005 | -0.358 | 74.8 | -1.11 | 112 |
| NPR3 | SID160778211 | 0.846 | 98.7 | 0.52 | 96.2 |
| NPR3 | SID160778212 | -0.554 | 70.9 | -0.745 | 96.3 |
| MCRIP1 | SID160725128 | -0.159 | 78.7 | -0.346 | 96.4 |
| MCRIP1 | SID160725129 | -0.989 | 62.2 | -1.1 | 92.9 |
| MCRIP1 | SID160733133 | 3.97 (active) | 161 | 1.85 | 110 |
| CD1C | SID160738084 | -0.307 | 75.8 | -0.17 | 88.6 |
| CD1C | SID160738095 | -1.03 | 61.4 | -1.29 | 96.4 |
| CD1C | SID160738105 | -0.725 | 67.5 | -0.44 | 84.7 |
| TAMALIN | SID160759789 | -1.54 | 51.3 | -0.749 | 69.8 |
| TAMALIN | SID160759790 | -0.209 | 77.7 | 0.113 | 84.3 |
| TAMALIN | SID160759791 | 2.22 | 126 | 1.64 | 91.5 |
| MYCBPAP | SID160751679 | 0.852 | 98.8 | 0.296 | 102 |
| MYCBPAP | SID160751681 | 0.862 | 99 | 0.811 | 89.4 |
| MYCBPAP | SID160751682 | -0.183 | 78.2 | 0.664 | 73.4 |
| ZFPM2 | SID160736236 | 0.589 | 93.6 | 0.596 | 89.4 |
| ZFPM2 | SID160736237 | -2.05 | 41 | -1.91 | 75.9 |
| ZFPM2 | SID160736239 | 0.516 | 92.1 | 0.388 | 93 |
| CXCL17 | SID160763264 | 0.598 | 93.8 | 0.381 | 94.8 |
| CXCL17 | SID160763265 | -0.205 | 77.8 | 1.42 | 59.8 |
| CXCL17 | SID160763267 | 0.827 | 98.3 | 2.93 | 50.8 |
| LOC643554 | SID160725645 | -0.382 | 74.3 | -0.00227 | 83.1 |
| LOC643554 | SID160725646 | 2.64 | 134 | 1.62 | 97.9 |
| LOC643554 | SID160728020 | -1.76 | 46.8 | -1.79 | 83.9 |

Next part; the last 6 above are carried over.
| Target gene | PubChem SID | total luciferase, z-score | total luciferase, % of control | luciferase per cell, z-score | viable cells, % of control |
| --- | --- | --- | --- | --- | --- |
| CXCL17 | SID160763264 | 0.598 | 93.8 | 0.381 | 94.8 |
| CXCL17 | SID160763265 | -0.205 | 77.8 | 1.42 | 59.8 |
| CXCL17 | SID160763267 | 0.827 | 98.3 | 2.93 | 50.8 |
| LOC643554 | SID160725645 | -0.382 | 74.3 | -0.00227 | 83.1 |
| LOC643554 | SID160725646 | 2.64 | 134 | 1.62 | 97.9 |
| LOC643554 | SID160728020 | -1.76 | 46.8 | -1.79 | 83.9 |
| ADSS1 | SID160755990 | -0.317 | 75.6 | -0.294 | 91.3 |
| ADSS1 | SID160755991 | 3.02 (active) | 142 | 2.09 | 91.5 |
| ADSS1 | SID160755992 | 0.465 | 91.1 | 0.349 | 92.9 |
| SLC25A51P1 | SID160768162 | -1.31 | 55.8 | -1.55 | 93.7 |
| SLC25A51P1 | SID160768163 | 1.31 | 108 | 1.1 | 90.4 |
| SLC25A51P1 | SID160768164 | -0.267 | 76.6 | -0.136 | 88.7 |
| ZNF623 | SID160723207 | -0.461 | 72.7 | 0.312 | 74.8 |
| ZNF623 | SID160723208 | 2.2 | 126 | 0.861 | 112 |
| ZNF623 | SID160723209 | 0.831 | 98.4 | 0.494 | 96.6 |
| CCDC86 | SID160748600 | -1.36 | 54.7 | -1.33 | 86.9 |
| CCDC86 | SID160748601 | -0.0741 | 80.4 | -0.757 | 110 |
| CCDC86 | SID160748602 | -0.766 | 66.7 | 0.116 | 72.3 |
| CCDC187 | SID160766844 | 0.693 | 95.7 | 2.1 | 61.5 |
| CCDC187 | SID160766845 | 0.0409 | 82.7 | -0.119 | 95.4 |
| CCDC187 | SID160766846 | 0.306 | 88 | -0.363 | 108 |
| ATAD2B | SID160741697 | -0.972 | 62.6 | -1.51 | 104 |
| ATAD2B | SID160741698 | -0.159 | 78.7 | -0.0789 | 89.8 |
| ATAD2B | SID160741700 | 0.976 | 101 | 1.02 | 86.6 |
| UBFD1 | SID160744739 | -0.875 | 64.5 | -1.38 | 104 |
| UBFD1 | SID160744740 | -0.782 | 66.3 | 0.748 | 60.9 |
| UBFD1 | SID160744742 | 0.965 | 101 | 1.19 | 82.5 |
| SMYD4 | SID160755053 | 2.93 | 140 | 1.81 | 97.3 |
| SMYD4 | SID160755054 | 0.0441 | 82.8 | -0.33 | 101 |
| SMYD4 | SID160755055 | -0.619 | 69.6 | -0.943 | 99.7 |
